According to paper PMC4499153:
No constants are given. Whether binding was seen depends on the method and setting. In cells and extracts the contact can be indirect. Some binding calls cover weakened binding; strength is not graded here. For part of these data: Where a sequence is shown, tags or fusion partners need not be part of it.

The chains behind the UniProt entries cited, without tags or fusion partners.
UniProt P50750: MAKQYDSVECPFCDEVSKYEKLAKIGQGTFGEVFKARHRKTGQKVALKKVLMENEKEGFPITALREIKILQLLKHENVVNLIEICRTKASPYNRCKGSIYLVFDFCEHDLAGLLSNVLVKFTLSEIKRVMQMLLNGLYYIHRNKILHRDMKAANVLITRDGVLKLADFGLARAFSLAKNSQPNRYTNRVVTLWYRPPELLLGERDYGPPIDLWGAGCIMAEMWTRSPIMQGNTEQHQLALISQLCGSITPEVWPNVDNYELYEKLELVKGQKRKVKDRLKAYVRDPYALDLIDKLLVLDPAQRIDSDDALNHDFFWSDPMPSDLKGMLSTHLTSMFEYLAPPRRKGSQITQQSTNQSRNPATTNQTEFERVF
UniProt P04608: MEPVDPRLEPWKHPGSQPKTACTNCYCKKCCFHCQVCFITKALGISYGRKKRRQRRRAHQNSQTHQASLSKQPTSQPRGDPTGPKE
UniProt O00472: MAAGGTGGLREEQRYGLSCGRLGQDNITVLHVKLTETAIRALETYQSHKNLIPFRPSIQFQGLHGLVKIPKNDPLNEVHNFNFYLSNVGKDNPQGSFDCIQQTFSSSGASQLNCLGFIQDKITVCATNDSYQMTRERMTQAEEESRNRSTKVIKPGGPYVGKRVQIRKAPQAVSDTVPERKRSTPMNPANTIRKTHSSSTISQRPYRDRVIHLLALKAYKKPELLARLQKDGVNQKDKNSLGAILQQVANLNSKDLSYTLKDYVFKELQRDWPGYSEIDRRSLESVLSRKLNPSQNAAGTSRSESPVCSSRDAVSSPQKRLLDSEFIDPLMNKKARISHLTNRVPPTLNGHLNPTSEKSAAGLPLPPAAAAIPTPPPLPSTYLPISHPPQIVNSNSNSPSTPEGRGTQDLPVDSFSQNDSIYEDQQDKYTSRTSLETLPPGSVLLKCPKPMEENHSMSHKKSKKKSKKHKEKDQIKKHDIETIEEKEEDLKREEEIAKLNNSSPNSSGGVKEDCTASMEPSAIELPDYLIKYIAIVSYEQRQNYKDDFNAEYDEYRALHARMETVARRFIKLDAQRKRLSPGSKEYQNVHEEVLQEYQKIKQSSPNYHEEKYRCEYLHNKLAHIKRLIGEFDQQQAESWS
UniProt O94992: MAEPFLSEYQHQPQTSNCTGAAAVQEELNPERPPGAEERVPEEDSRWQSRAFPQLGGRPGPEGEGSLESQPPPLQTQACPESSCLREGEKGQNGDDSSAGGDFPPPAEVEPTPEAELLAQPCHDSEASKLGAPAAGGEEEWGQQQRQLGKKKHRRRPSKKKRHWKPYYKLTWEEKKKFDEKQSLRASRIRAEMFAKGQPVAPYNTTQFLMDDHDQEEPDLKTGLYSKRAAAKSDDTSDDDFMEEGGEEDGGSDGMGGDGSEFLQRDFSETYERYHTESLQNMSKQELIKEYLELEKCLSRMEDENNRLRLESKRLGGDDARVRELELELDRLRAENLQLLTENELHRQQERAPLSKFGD

T1: FLAG-tagged AFF1 V67M (UniProt P51825)
T1 sequence: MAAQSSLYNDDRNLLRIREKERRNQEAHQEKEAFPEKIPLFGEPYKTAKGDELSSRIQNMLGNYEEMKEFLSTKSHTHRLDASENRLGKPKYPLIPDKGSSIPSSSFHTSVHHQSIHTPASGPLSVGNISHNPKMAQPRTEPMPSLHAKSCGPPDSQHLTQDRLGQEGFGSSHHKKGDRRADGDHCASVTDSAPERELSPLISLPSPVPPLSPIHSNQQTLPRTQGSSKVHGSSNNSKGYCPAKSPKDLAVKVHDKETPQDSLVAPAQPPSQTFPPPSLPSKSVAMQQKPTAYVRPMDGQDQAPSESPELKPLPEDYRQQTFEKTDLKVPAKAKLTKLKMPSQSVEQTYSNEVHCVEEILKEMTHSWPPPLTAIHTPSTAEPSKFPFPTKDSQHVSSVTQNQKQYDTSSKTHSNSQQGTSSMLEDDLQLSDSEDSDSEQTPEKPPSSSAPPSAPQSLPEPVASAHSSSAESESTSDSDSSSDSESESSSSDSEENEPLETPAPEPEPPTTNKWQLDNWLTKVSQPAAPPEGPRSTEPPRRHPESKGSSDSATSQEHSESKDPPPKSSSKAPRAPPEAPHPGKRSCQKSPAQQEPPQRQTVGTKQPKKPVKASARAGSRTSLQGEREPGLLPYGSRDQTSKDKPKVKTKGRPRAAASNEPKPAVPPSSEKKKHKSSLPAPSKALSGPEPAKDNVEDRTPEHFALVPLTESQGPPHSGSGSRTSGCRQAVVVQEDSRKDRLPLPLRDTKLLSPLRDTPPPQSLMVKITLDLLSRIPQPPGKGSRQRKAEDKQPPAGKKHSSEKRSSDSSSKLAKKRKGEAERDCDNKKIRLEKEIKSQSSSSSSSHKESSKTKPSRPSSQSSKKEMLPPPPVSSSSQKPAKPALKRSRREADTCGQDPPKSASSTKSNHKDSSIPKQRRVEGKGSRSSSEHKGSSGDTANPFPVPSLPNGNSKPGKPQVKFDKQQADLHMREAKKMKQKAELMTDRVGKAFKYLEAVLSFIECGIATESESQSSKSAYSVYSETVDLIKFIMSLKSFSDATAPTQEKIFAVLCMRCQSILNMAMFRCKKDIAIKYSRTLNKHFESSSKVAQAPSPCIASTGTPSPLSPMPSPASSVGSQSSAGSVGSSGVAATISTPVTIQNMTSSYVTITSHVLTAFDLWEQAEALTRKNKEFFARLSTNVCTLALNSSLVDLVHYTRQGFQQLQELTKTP

T2: FLAG-tagged AFF1, full length (aa 1-1210) (UniProt P51825)
T2 sequence: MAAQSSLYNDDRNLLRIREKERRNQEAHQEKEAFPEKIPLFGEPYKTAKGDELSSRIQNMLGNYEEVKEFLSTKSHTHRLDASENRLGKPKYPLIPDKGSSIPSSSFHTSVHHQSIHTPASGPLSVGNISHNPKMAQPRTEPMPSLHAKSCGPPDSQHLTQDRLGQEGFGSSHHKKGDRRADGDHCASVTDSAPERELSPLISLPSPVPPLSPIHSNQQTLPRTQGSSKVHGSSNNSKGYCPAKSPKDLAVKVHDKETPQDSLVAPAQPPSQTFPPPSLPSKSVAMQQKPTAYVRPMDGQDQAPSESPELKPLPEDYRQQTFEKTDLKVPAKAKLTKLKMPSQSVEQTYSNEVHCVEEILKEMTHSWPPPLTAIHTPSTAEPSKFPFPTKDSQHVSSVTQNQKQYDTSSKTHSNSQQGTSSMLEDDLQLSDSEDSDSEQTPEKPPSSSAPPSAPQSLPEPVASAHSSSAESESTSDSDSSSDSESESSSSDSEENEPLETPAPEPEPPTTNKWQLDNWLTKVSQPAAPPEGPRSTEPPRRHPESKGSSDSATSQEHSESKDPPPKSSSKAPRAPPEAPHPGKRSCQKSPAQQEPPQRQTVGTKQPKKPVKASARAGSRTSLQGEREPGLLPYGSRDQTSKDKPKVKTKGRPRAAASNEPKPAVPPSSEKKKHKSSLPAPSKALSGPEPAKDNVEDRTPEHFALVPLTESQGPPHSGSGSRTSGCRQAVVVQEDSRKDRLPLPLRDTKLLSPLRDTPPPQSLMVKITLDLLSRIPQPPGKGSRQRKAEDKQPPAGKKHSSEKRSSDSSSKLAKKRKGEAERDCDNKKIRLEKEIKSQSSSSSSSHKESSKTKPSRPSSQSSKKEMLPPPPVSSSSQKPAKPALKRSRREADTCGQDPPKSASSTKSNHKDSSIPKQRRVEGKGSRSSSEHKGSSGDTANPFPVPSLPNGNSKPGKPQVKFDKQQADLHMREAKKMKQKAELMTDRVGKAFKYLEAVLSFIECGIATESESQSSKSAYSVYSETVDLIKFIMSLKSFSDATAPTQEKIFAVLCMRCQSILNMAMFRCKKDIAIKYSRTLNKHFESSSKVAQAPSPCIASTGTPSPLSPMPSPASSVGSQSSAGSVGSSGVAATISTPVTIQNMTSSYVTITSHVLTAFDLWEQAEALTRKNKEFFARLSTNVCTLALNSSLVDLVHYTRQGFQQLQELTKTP

T3: FLAG-tagged AFF1 with the C-terminal homology domain deleted (UniProt P51825)
T3 sequence: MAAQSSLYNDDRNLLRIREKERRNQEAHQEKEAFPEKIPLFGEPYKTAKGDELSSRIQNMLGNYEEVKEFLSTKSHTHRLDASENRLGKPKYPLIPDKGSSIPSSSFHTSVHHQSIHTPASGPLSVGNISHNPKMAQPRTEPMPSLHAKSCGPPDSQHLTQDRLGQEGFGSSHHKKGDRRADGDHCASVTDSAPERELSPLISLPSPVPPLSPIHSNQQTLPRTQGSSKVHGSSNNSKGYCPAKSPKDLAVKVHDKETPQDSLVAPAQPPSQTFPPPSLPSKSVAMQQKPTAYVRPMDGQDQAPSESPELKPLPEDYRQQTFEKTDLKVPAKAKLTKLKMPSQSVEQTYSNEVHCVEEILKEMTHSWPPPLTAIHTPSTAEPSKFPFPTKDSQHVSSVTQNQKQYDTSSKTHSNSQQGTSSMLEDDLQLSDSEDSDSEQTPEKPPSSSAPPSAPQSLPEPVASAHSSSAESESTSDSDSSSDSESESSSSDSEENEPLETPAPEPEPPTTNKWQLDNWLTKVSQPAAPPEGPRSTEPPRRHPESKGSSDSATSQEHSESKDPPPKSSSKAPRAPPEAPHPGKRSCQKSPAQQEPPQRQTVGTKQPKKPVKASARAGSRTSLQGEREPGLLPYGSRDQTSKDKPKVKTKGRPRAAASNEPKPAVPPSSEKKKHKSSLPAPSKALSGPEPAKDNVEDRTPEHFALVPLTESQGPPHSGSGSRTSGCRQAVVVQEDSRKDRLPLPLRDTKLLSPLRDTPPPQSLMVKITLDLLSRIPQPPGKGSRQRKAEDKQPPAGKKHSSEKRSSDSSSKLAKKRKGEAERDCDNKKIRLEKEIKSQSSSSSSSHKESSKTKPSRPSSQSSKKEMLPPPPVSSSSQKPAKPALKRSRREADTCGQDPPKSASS


Key:
[1] = biological target: Flag-tagged CDK9, transfected in HeLa cells (human) (UniProt P50750); experiment: co-IP
[2] = biological target: T1, FLAG-tagged AFF1 V67M; experiment: co-IP; anti-Flag immunoprecipitation of Flag-tagged AFF1 or AFF4 (WT, truncations, point mutants) from nuclear extracts of transfected HeLa cells; western blotting for endogenous proteins (Figures 1C,D, 3B,D, 4A)
[3] = biological target: T2, FLAG-tagged AFF1, full length (aa 1-1210); experiment: as above
[4] = biological target: T3, FLAG-tagged AFF1 with the C-terminal homology domain deleted; experiment: as above

Row | Molecule | binding [1] | binding [2] | binding [3] | binding [4]
1 | HIV-1 Tat (from UniProt P04608 1-86) | binds |  |  | 
2 | CDK9, endogenous (from UniProt P50750 1-372) |  | binds | binds | binds
3 | ELL2, endogenous (from UniProt O00472 1-640) |  |  | binds | binds
4 | HEXIM1, endogenous (from UniProt O94992 1-359) |  |  | binds | 
5 | ENL, endogenous (protein, UniProt Q03111 1-559) MDNQCTVQVRLELGHRAQLRKKPTTEGFTHDWMVFVRGPEQCDIQHFVEKVVFWLHDSFPKPRRVCKEPPYKVEESGYAGFIMPIEVHFKNKEEPRKVCFTYDLFLNLEGNPPVNHLRCEKLTFNNPTTEFRYKLLRAGGVMVMPEGADTVSRPSPDYPMLPTIPLSAFSDPKKTKPSHGSKDANKESSKTSKPHKVTKEHRERPRKDSESKSSSKELEREQAKSSKDTSRKLGEGRLPKEEKAPPPKAAFKEPKMALKETKLESTSPKGGPPPPPPPPPRASSKRPATADSPKPSAKKQKKSSSKGSRSAPGTSPRTSSSSSFSDKKPAKDKSSTRGEKVKAESEPREAKKALEVEESNSEDEASFKSESAQSSPSNSSSSSDSSSDSDFEPSQNHSQGPLRSMVEDLQSEESDEDDSSSGEEAAGKTNPGRDSRLSFSDSESDNSADSSLPSREPPPPQKPPPPNSKVSGRRSPESCSKPEKILKKGTYDKAYTDELVELHRRLMALRERNVLQQIVNLIEETGHFNVTNTTFDFDLFSLDETTVRKLQSCLEAVAT |  |  | binds | binds
6 | ELL1, endogenous (protein, UniProt P55199 1-621) MAALKEDRSYGLSCGRVSDGSKVSVFHVKLTDSALRAFESYRARQDSVSLRPSIRFQGSQGHISIPQPDCPAEARTFSFYLSNIGRDNPQGSFDCIQQYVSSHGEVHLDCLGSIQDKITVCATDDSYQKARQSMAQAEEETRSRSAIVIKAGGRYLGKKVQFRKPAPGATDAVPSRKRATPINLASAIRKSGASAVSGGSGVSQRPFRDRVLHLLALRPYRKAELLLRLQKDGLTQADKDALDGLLQQVANMSAKDGTCTLQDCMYKDVQKDWPGYSEGDQQLLKRVLVRKLCQPQSTGSLLGDPAASSPPGERGRSASPPQKRLQPPDFIDPLANKKPRISHFTQRAQPAVNGKLGVPNGREALLPTPGPPASTDTLSSSTHLPPRLEPPRAHDPLADVSNDLGHSGRDCEHGEAAAPAPTVRLGLPLLTDCAQPSRPHGSPSRSKPKKKSKKHKDKERAAEDKPRAQLPDCAPATHATPGAPADTPGLNGTCSVSSVPTSTSETPDYLLKYAAISSSEQRQSYKNDFNAEYSEYRDLHARIERITRRFTQLDAQLRQLSQGSEEYETTRGQILQEYRKIKKTNTNYSQEKHRCEYLHSKLAHIKRLIAEYDQRQLQAWP |  |  | binds | binds
7 | LARP7, endogenous (protein, UniProt Q4G0J3 1-582) METESGNQEKVMEEESTEKKKEVEKKKRSRVKQVLADIAKQVDFWFGDANLHKDRFLREQIEKSRDGYVDISLLVSFNKMKKLTTDGKLIARALRSSAVVELDLEGTRIRRKKPLGERPKDEDERTVYVELLPKNVNHSWIERVFGKCGNVVYISIPHYKSTGDPKGFAFVEFETKEQAAKAIEFLNNPPEEAPRKPGIFPKTVKNKPIPALRVVEEKKKKKKKKGRMKKEDNIQAKEENMDTSNTSISKMKRSRPTSEGSDIESTEPQKQCSKKKKKRDRVEASSLPEVRTGKRKRSSSEDAESLAPRSKVKKIIQKDIIKEASEASKENRDIEISTEEEKDTGDLKDSSLLKTKRKHKKKHKERHKMGEEVIPLRVLSKSEWMDLKKEYLALQKASMASLKKTISQIKSESEMETDSGVPQNTGMKNEKTANREECRTQEKVNATGPQFVSGVIVKIISTEPLPGRKQVRDTLAAISEVLYVDLLEGDTECHARFKTPEDAQAVINAYTEINKKHCWKLEILSGDHEQRYWQKILVDRQAKLNQPREKKRGTEKLITKAEKIRLAKTQQASKHIRFSEYD |  |  | binds | 
